Laboratory results: patent US20250099485A1, “COMPOSITIONS FOR PROMOTING HAIR GROWTH” (ESTETRA SRL, priority 2021, published 2025)
At least one compound was matched to its structure with a doubt left.

Columns and labels:
[1] = system: Normal Human Dermal Fibroblasts (NHDFs); assay: Colonization of acellular area (IBIDI gap closure), fibroblasts; format: cell-based; conditions: for NHDF Proliferation & Migration (colonization of acellular area vs ethanol control): absence of MMC, 6 h and 24 h contact, cell gives time of significant effect
Procedure: (§1) The study consists in an in vitro assay aiming to evaluate the properties of E4 and E2 at 4 concentrations each on keratinocytes and fibroblasts. In this assay, the measurement of the colonization of a standard acellular surface generated from a confluent monolayer of cells using a dedicated culture device (IBIDI chamber) is performed. The assay is performed in absence and in presence of a proliferation inhibitor to focus on cell proliferation and migration or on migration only, respectively.
Normal Human foreskin-derived Dermal Fibroblast (NHDFs, ATCC) cells were grown in phenol-free Dulbecco's Modified Eagle Medium (DMEM, ThermoFisher Scientific) supplemented with 10% of Foetal Bovine Serum (FBS, ThermoFisher Scientific), L-glutamine and antibiotics. The cells were maintained in a humidified incubator at 37° C. with a 5% CO2 atmosphere.
(§2) Cells were plated in 2-well silicone inserts with a defined cell free gap (IBIDI chambers; IBIDI GmbH, 80209) that was previously inserted on 12-well culture plates. This culture device allows to create a standardized 500 μm±100 μm cell free gap for monitoring cell colonization. 24 h after seeding, when the culture reached high confluency, cells in the insert were treated, or not, with mitomycin C (MMC) at 10 μg/ml during 2 h. After these 2 hours, the insert was removed, and cells were treated with E2 or E4 in presence or not of MMC for additional 2 h. Then, if appropriate, the culture medium was removed and cells were treated with E2 or E4 for 22 h, in absence of MMC.
For the assay, keratinocytes were plated in Epilife medium without HKGS and all the treatments were performed in this medium. Fibroblasts were plated in DMEM medium containing only 2.5% of FBS and the treatments were performed in absence of FBS.
E2 and E4 were applied at 4 concentrations each (10^−7M, 10^−8M, 10^−9M, 10^−10M). In parallel, cells were treated with a positive control (HKGS 1% for human keratinocytes and PDGF-BB at 10 ng/ml for human fibroblasts).
To monitor cell colonization and to evaluate the gap closure rate, pictures of the gap were taken after different times: at time 0 h, corresponding to the beginning of the treatment with E2 or E4 and to the removal of the culture insert, at time 6 h and at time 24 h (corresponding to the end of the treatments with E2 or E4). Pictures were taken with a microscope Zeiss (Axiover 25-10× objective) and with a camera Invenio2EIII (DeltaPix—Lux-Optic). The colonized areas were quantified from the pictures by the use of the WimAsis platform—WimScratch software. For each insert, 3 pictures were taken at each time. As each condition was performed in triplicates, it means a total of 9 pictures per condition and per time point of acquisition

[2] = system: Normal Human Epidermal Keratinocytes (NHEKs); assay: Colonization of acellular area (IBIDI gap closure), keratinocytes; format: cell-based
Procedure: as §1
The study was performed using cultures of Normal Human foreskin-derived Epidermal Keratinocytes (NHEKs, Lonza). The cells were grown in serum free Epilife medium (ThermoFisher Scientific) supplemented with Human Keratinocyte Growth Supplement (HKGS, ThermoFisher Scientific) and antibiotics. The cells were maintained in a humidified incubator at 37° C. with a 5% CO2 atmosphere.
as §2, with “MMC. […]” for “MMC.”
To monitor cell colonization and to evaluate the gap closure rate, pictures of the gap were taken after different times: at time 0 h, corresponding to the beginning of the treatment with E2 or E4 and to the removal of the culture insert, at time 6 h and at time 24 h (corresponding to the end of the treatments with E2 or E4). […] The colonized areas were quantified from the pictures by the use of the WimAsis platform—WimScratch software. […]

SMILES: C[C@]12CC[C@@H]3c4ccc(O)cc4CC[C@H]3[C@@H]1CC[C@@H]2O [E2, beta-estradiol, reference compound]
- NHDF Proliferation & Migration (colonization of acellular area vs ethanol control) ([1]; 10^−7M): increased the colonization of the acellular area
- NHDF Proliferation & Migration (colonization of acellular area vs ethanol control) ([1]; 10^−8M): increased the colonization of the acellular area
- NHDF Proliferation & Migration (colonization of acellular area vs ethanol control) ([1]; 10^−10M): increased the colonization of the acellular area
- NHDF colonization of the cell-free gap ([1]; presence of MMC, all four concentrations): not able to significantly increase
- NHEK gap closure, significance of inhibition ([2]; 10^−8M, after 24 h of treatment): inhibition is significant
- NHEK gap closure, inhibitor effect ([2]; concentrations between 10^−7M and 10^−9 M, after 24 h of treatment): inhibitor effect on the gap closure
- NHEK colonization of the cell-free area in comparison to the ethanol control ([2]; presence or absence of MMC, all four concentrations (10^−7M to 10^−10M)): not able to significantly increase
